# Data reported in patent publication US10378046B2, “Method of targeting mismatched DNA using d8 square planar metal complexes” (The University of Hong Kong, priority 2015, dated 2019).
# For at least one compound, name, drawing or mass did not settle the structure.
# Test system: HCT116 cancer cells
# Assay: Fluorescence microscopy staining of permeabilized HCT116 and NCM460 cells
# Type: cell-based, human
# Settings: 10 μM
compound,measurement,value
CC[n+]1c(-c2ccccc2)c2cc(N)ccc2c2ccc(N)cc21 [ethidium bromide],emission from HCT116 compared with NCM460 cells co-cultured in the same dish,no differential emission
